# Data taken from the supplement of paper PMC8728848.
# The list shows a part of the results.
# B1: LysMD3 (Homo sapiens), Q7Z3D4 (protein)
# chain: MAGRHQNRSFPLPGVQSSGQVHAFGNCSDSDILEEDAEVYELRSRGKEKVRRSTSRDRLDDIIVLTKDIQEGDTLNAIALQYCCTVADIKRVNNLISDQDFFALRSIKIPVKKFSSLTETLCPPKGRQTSRHSSVQYSSEQQEILPANDSLAYSDSAGSFLKEVDRDIEQIVKCTDNKRENLNEVVSALTAQQMRFEPDNKNTQRKDPYYGADWGIG
# Legend:
# Assay in all cases: glycan array binding signal (z-score within array); higher = stronger binding
# Settings in all cases: glycan notation: IUPAC condensed, linker removed
# [1] = molecular target: Neu5Ac(a2-6)GlcNAc(b1-4)GlcNAc(b1-4)GlcNAc
# Outline: (§1)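 Glycan array data were curated from 3228 arrays in the Consortium for Functional Glycomics database and kept only where the protein sequence was available. Glycan names were converted to IUPAC-condensed notation, and columns mapping to the same glycan were averaged. The binding signal is a within-array Z-score, averaged across arrays of the same protein sequence at different concentrations or buffers and across linkers. Negative Z-scores can be read as non-binding.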
# Neu5Ac(a2-8)Neu5Ac = molecular target: Neu5Ac(a2-8)Neu5Ac
# Outline: as §1
# [2] = molecular target: Neu5Ac(a2-8)Neu5Ac(a2-3)Gal(b1-3)GalNAc(b1-4)[Neu5Ac(a2-3)]Gal(b1-4)Glc
# Outline: as §1
# [3] = molecular target: Neu5Ac(a2-8)Neu5Ac(a2-3)Gal(b1-3)GalNAc(b1-4)[Neu5Ac(a2-8)Neu5Ac(a2-3)]Gal(b1-4)Glc
# Outline: as §1
# [4] = molecular target: Neu5Ac(a2-8)Neu5Ac(a2-3)Gal(b1-4)Glc
# Outline: as §1
# [5] = molecular target: Neu5Ac(a2-8)Neu5Ac(a2-3)Gal(b1-4)GlcNAc
# Outline: as §1
# [6] = molecular target: Neu5Ac(a2-8)Neu5Ac(a2-3)[Gal(b1-3)GalNAc(b1-4)]Gal(b1-4)Glc
# Outline: as §1
# [7] = molecular target: Neu5Ac(a2-8)Neu5Ac(a2-3)[GalNAc(b1-4)]Gal(b1-4)Glc
# Outline: as §1
# [8] = molecular target: Neu5Ac(a2-8)Neu5Ac(a2-8)Neu5Ac
# Outline: as §1
# [9] = molecular target: Neu5Ac(a2-8)Neu5Ac(a2-8)Neu5Ac(a2-3)Gal(b1-4)Glc
# Outline: as §1
# [10] = molecular target: Neu5Ac(a2-8)Neu5Ac(a2-8)Neu5Ac(a2-3)[Gal(b1-3)GalNAc(b1-4)]Gal(b1-4)Glc
# Outline: as §1
# [11] = molecular target: Neu5Ac(a2-8)Neu5Ac(a2-8)Neu5Ac(a2-3)[GalNAc(b1-4)]Gal(b1-4)Glc
# Outline: as §1
# [12] = molecular target: Neu5Ac(a2-8)Neu5Ac(a2-8)Neu5Ac(a2-8)Neu5Ac(a2-3)[GalNAc(b1-4)]Gal(b1-4)Glc
# Outline: as §1
# [13] = molecular target: Neu5Ac(a2-8)Neu5Gc(a2-3)Gal(b1-4)GlcNAc
# Outline: as §1
# [14] = molecular target: Neu5Ac(b2-6)Gal(b1-4)GlcNAc
# Outline: as §1
# Neu5Ac(b2-6)GalNAc = molecular target: Neu5Ac(b2-6)GalNAc
# Outline: as §1
# [15] = molecular target: Neu5Ac9Ac(a2-3)Gal(b1-3)GlcNAc
# Outline: as §1
# [16] = molecular target: Neu5Ac9Ac(a2-3)Gal(b1-4)GlcNAc
# Outline: as §1
# [17] = molecular target: Neu5Ac9Ac(a2-6)Gal(b1-4)GlcNAc
# Outline: as §1
# [18] = molecular target: Neu5Gc(a2-3)Gal(b1-3)GlcNAc
# Outline: as §1
# [19] = molecular target: Neu5Gc(a2-3)Gal(b1-3)[Fuc(a1-4)]GlcNAc
# Outline: as §1
# Neu5Gc(a2-3)Gal(b1-4)Glc = molecular target: Neu5Gc(a2-3)Gal(b1-4)Glc
# Outline: as §1
# [20] = molecular target: Neu5Gc(a2-3)Gal(b1-4)GlcNAc
# Outline: as §1
# [21] = molecular target: Neu5Gc(a2-3)Gal(b1-4)GlcNAc(b1-3)Gal(b1-4)GlcNAc(b1-2)Man(a1-3)[Neu5Gc(a2-3)Gal(b1-4)GlcNAc(b1-3)Gal(b1-4)GlcNAc(b1-2)Man(a1-6)]Man(b1-4)GlcNAc(b1-4)GlcNAc
# Outline: as §1
# [22] = molecular target: Neu5Gc(a2-3)Gal(b1-4)[Fuc(a1-3)]GlcNAc
# Outline: as §1
# [23] = molecular target: Neu5Gc(a2-6)Gal(b1-4)GlcNAc
# Outline: as §1
# Neu5Gc(a2-6)GalNAc = molecular target: Neu5Gc(a2-6)GalNAc
# Outline: as §1
# [24] = molecular target: Neu5Gc(a2-8)Neu5Ac(a2-3)Gal(b1-4)GlcNAc
# Outline: as §1
# [25] = molecular target: Neu5Gc(a2-8)Neu5Gc(a2-3)Gal(b1-4)GlcNAc
# Outline: as §1
# [26] = molecular target: Neu5Gc(a2-8)Neu5Gc(a2-3)Gal(b1-4)GlcNAc(b1-3)Gal(b1-4)GlcNAc
# Outline: as §1
# [27] = molecular target: Neu5Gc(a2-8)Neu5Gc(a2-6)Gal(b1-4)GlcNAc
# Outline: as §1
# [28] = molecular target: Neu5Gc(b2-6)Gal(b1-4)GlcNAc
# Outline: as §1
binder,measurement,setting,value
B1,glycan array binding signal (z-score),[1],-0.725
same,glycan array binding signal (z-score),Neu5Ac(a2-8)Neu5Ac,-0.273
same,glycan array binding signal (z-score),[2],0.988
same,glycan array binding signal (z-score),[3],1.66
same,glycan array binding signal (z-score),[4],-0.753
same,glycan array binding signal (z-score),[5],-0.512
same,glycan array binding signal (z-score),[6],-0.411
same,glycan array binding signal (z-score),[7],0.512
same,glycan array binding signal (z-score),[8],-0.371
same,glycan array binding signal (z-score),[9],-1.05
same,glycan array binding signal (z-score),[10],-0.812
same,glycan array binding signal (z-score),[11],-0.862
same,glycan array binding signal (z-score),[12],0.551
same,glycan array binding signal (z-score),[13],-0.377
same,glycan array binding signal (z-score),[14],-0.214
same,glycan array binding signal (z-score),Neu5Ac(b2-6)GalNAc,-0.267
same,glycan array binding signal (z-score),[15],-0.019
same,glycan array binding signal (z-score),[16],-0.085
same,glycan array binding signal (z-score),[17],0.145
same,glycan array binding signal (z-score),[18],-0.338
same,glycan array binding signal (z-score),[19],-0.44
same,glycan array binding signal (z-score),Neu5Gc(a2-3)Gal(b1-4)Glc,-0.326
same,glycan array binding signal (z-score),[20],-0.032
same,glycan array binding signal (z-score),[21],1.38
same,glycan array binding signal (z-score),[22],-0.174
same,glycan array binding signal (z-score),[23],-0.344
same,glycan array binding signal (z-score),Neu5Gc(a2-6)GalNAc,-0.533
same,glycan array binding signal (z-score),[24],0.016
same,glycan array binding signal (z-score),[25],-0.391
same,glycan array binding signal (z-score),[26],0.616
same,glycan array binding signal (z-score),[27],0.066
same,glycan array binding signal (z-score),[28],-0.533

# Exported as tab-separated lines: part of the list above
binder	measurement	setting	value
B1	glycan array binding signal (z-score)	[13]	-0.377
same	glycan array binding signal (z-score)	[14]	-0.214
